# Reference: the supplement of paper PMC8728848
# Some of the results follow.
# B1: CD34 (Homo sapiens), P28906 (protein)
# chain: MGSSHHHHHHSSGLVPRGSHMSTSLATSPTKPYTSSSPILSDIKAEIKCSGIREVKLTQGICLEQNKTSSCAEFKKDRGEGLARVLCGEEQADADAGAQVCSLLLAQSEVRPQCLLLVLANRTEISSKLQLMKKHQSDLKKLGILDFTEQDVASHQSYSQKT
# Columns and labels:
# Experiment in all cases: glycan array binding signal (z-score within array); higher = stronger binding
# Conditions in all cases: glycan notation: IUPAC condensed, linker removed
# [1] = biological target: Neu5Ac(a2-3)Gal(b1-4)GlcNAc(b1-3)[Neu5Ac(a2-3)Gal(b1-4)GlcNAc(b1-6)]GalNAc
# Summary of the method: (§1)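 The Consortium for Functional Glycomics database supplied 3228 glycan arrays, of which those lacking an available protein sequence were dropped. The binding signal, a within-array Z-score, was averaged across arrays of the same protein sequence and across linkers. Negative scores can be read as non-binding.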
# [2] = biological target: Neu5Ac(a2-3)Gal(b1-4)GlcNAc(b1-6)GalNAc
# Summary of the method: as §1
# [3] = biological target: Neu5Ac(a2-3)Gal(b1-4)GlcNAc(b1-6)[Gal(b1-3)]GalNAc
# Summary of the method: as §1
# [4] = biological target: Neu5Ac(a2-3)Gal(b1-4)GlcNAc(b1-6)[Neu5Ac(a2-3)Gal(b1-3)]GalNAc
# Summary of the method: as §1
# [5] = biological target: Neu5Ac(a2-3)Gal(b1-4)GlcNAc6S
# Summary of the method: as §1
# [6] = biological target: Neu5Ac(a2-3)Gal(b1-4)[Fuc(a1-3)]GlcNAc
# Summary of the method: as §1
# [7] = biological target: Neu5Ac(a2-3)Gal(b1-4)[Fuc(a1-3)]GlcNAc(b1-2)Man
# Summary of the method: as §1
# [8] = biological target: Neu5Ac(a2-3)Gal(b1-4)[Fuc(a1-3)]GlcNAc(b1-3)Gal
# Summary of the method: as §1
# [9] = biological target: Neu5Ac(a2-3)Gal(b1-4)[Fuc(a1-3)]GlcNAc(b1-3)Gal(b1-4)GlcNAc
# Summary of the method: as §1
# [10] = biological target: Neu5Ac(a2-3)Gal(b1-4)[Fuc(a1-3)]GlcNAc(b1-3)Gal(b1-4)[Fuc(a1-3)]GlcNAc(b1-3)Gal(b1-4)[Fuc(a1-3)]GlcNAc
# Summary of the method: as §1
# [11] = biological target: Neu5Ac(a2-3)Gal(b1-4)[Fuc(a1-3)]GlcNAc(b1-3)GalNAc
# Summary of the method: as §1
# [12] = biological target: Neu5Ac(a2-3)Gal(b1-4)[Fuc(a1-3)]GlcNAc(b1-6)[Gal(b1-3)]GalNAc
# Summary of the method: as §1
# [13] = biological target: Neu5Ac(a2-3)Gal(b1-4)[Fuc(a1-3)]GlcNAc(b1-6)[Neu5Ac(a2-3)Gal(b1-3)]GalNAc
# Summary of the method: as §1
# [14] = biological target: Neu5Ac(a2-3)Gal(b1-4)[Fuc(a1-3)]GlcNAc6S
# Summary of the method: as §1
# [15] = biological target: Neu5Ac(a2-3)Gal6S(b1-4)GlcNAc
# Summary of the method: as §1
# [16] = biological target: Neu5Ac(a2-3)Gal6S(b1-4)[Fuc(a1-3)]GlcNAc
# Summary of the method: as §1
# Neu5Ac(a2-3)GalNAc = biological target: Neu5Ac(a2-3)GalNAc
# Summary of the method: as §1
# [17] = biological target: Neu5Ac(a2-3)GalNAc(b1-4)GlcNAc
# Summary of the method: as §1
# [18] = biological target: Neu5Ac(a2-3)[GalNAc(b1-4)]Gal(b1-4)Glc
# Summary of the method: as §1
# [19] = biological target: Neu5Ac(a2-3)[GalNAc(b1-4)]Gal(b1-4)GlcNAc
# Summary of the method: as §1
# [20] = biological target: Neu5Ac(a2-3)[GalNAc(b1-4)]Gal(b1-4)GlcNAc(b1-3)GalNAc
# Summary of the method: as §1
# [21] = biological target: Neu5Ac(a2-3)[Neu5Ac(a2-6)]GalNAc
# Summary of the method: as §1
# Neu5Ac(a2-6)Gal = biological target: Neu5Ac(a2-6)Gal
# Summary of the method: as §1
# [22] = biological target: Neu5Ac(a2-6)Gal(b1-3)GlcNAc(b1-3)[Gal(b1-4)GlcNAc(b1-6)]Gal(b1-4)Glc
# Summary of the method: as §1
# Neu5Ac(a2-6)Gal(b1-4)Glc = biological target: Neu5Ac(a2-6)Gal(b1-4)Glc
# Summary of the method: as §1
# [23] = biological target: Neu5Ac(a2-6)Gal(b1-4)GlcNAc
# Summary of the method: as §1
# [24] = biological target: Neu5Ac(a2-6)Gal(b1-4)GlcNAc(b1-2)Man
# Summary of the method: as §1
# [25] = biological target: Neu5Ac(a2-6)Gal(b1-4)GlcNAc(b1-2)Man(a1-3)Man(b1-4)GlcNAc(b1-4)GlcNAc
# Summary of the method: as §1
# [26] = biological target: Neu5Ac(a2-6)Gal(b1-4)GlcNAc(b1-2)Man(a1-3)[Gal(b1-4)GlcNAc(b1-2)Man(a1-6)]Man(b1-4)GlcNAc(b1-4)GlcNAc
# Summary of the method: as §1
# [27] = biological target: Neu5Ac(a2-6)Gal(b1-4)GlcNAc(b1-2)Man(a1-3)[GlcNAc(b1-2)Man(a1-6)]Man(b1-4)GlcNAc(b1-4)GlcNAc
# Summary of the method: as §1
# [28] = biological target: Neu5Ac(a2-6)Gal(b1-4)GlcNAc(b1-2)Man(a1-3)[GlcNAc(b1-4)][Neu5Ac(a2-6)Gal(b1-4)GlcNAc(b1-2)Man(a1-6)]Man(b1-4)GlcNAc(b1-4)GlcNAc
# Summary of the method: as §1
# [29] = biological target: Neu5Ac(a2-6)Gal(b1-4)GlcNAc(b1-2)Man(a1-3)[Man(a1-6)]Man(b1-4)GlcNAc(b1-4)GlcNAc
# Summary of the method: as §1
# [30] = biological target: Neu5Ac(a2-6)Gal(b1-4)GlcNAc(b1-2)Man(a1-3)[Neu5Ac(a2-3)Gal(b1-4)GlcNAc(b1-2)Man(a1-6)]Man(b1-4)GlcNAc(b1-4)GlcNAc
# Summary of the method: as §1
# [31] = biological target: Neu5Ac(a2-6)Gal(b1-4)GlcNAc(b1-2)Man(a1-3)[Neu5Ac(a2-6)Gal(b1-4)GlcNAc(b1-2)Man(a1-6)]Man(b1-4)GlcNAc(b1-4)GlcNAc
# Summary of the method: as §1
# [32] = biological target: Neu5Ac(a2-6)Gal(b1-4)GlcNAc(b1-2)Man(a1-3)[Neu5Ac(a2-6)Gal(b1-4)GlcNAc(b1-2)Man(a1-6)]Man(b1-4)GlcNAc(b1-4)[Fuc(a1-6)]GlcNAc
# Summary of the method: as §1
# [33] = biological target: Neu5Ac(a2-6)Gal(b1-4)GlcNAc(b1-2)Man(a1-6)Man(b1-4)GlcNAc(b1-4)GlcNAc
# Summary of the method: as §1
# [34] = biological target: Neu5Ac(a2-6)Gal(b1-4)GlcNAc(b1-2)Man(a1-6)[Gal(b1-4)GlcNAc(b1-2)Man(a1-3)]Man(b1-4)GlcNAc(b1-4)GlcNAc
# Summary of the method: as §1
# [35] = biological target: Neu5Ac(a2-6)Gal(b1-4)GlcNAc(b1-2)Man(a1-6)[GlcNAc(b1-2)Man(a1-3)]Man(b1-4)GlcNAc(b1-4)GlcNAc
# Summary of the method: as §1
# [36] = biological target: Neu5Ac(a2-6)Gal(b1-4)GlcNAc(b1-2)Man(a1-6)[Man(a1-3)]Man(b1-4)GlcNAc(b1-4)GlcNAc
# Summary of the method: as §1
# [37] = biological target: Neu5Ac(a2-6)Gal(b1-4)GlcNAc(b1-2)[Neu5Ac(a2-6)Gal(b1-4)GlcNAc(b1-4)]Man(a1-3)[GlcNAc(b1-4)][Neu5Ac(a2-6)Gal(b1-4)GlcNAc(b1-2)[Neu5Ac(a2-6)Gal(b1-4)GlcNAc(b1-6)]Man(a1-6)]Man(b1-4)GlcNAc(b1-4)GlcNAc
# Summary of the method: as §1
# [38] = biological target: Neu5Ac(a2-6)Gal(b1-4)GlcNAc(b1-2)[Neu5Ac(a2-6)Gal(b1-4)GlcNAc(b1-4)]Man(a1-3)[GlcNAc(b1-4)][Neu5Ac(a2-6)Gal(b1-4)GlcNAc(b1-4)Man(a1-6)]Man(b1-4)GlcNAc(b1-4)GlcNAc
# Summary of the method: as §1
# [39] = biological target: Neu5Ac(a2-6)Gal(b1-4)GlcNAc(b1-2)[Neu5Ac(a2-6)Gal(b1-4)GlcNAc(b1-6)]Man(a1-6)[Neu5Ac(a2-6)Gal(b1-4)GlcNAc(b1-2)Man(a1-3)][GlcNAc(b1-4)]Man(b1-4)GlcNAc(b1-4)GlcNAc
# Summary of the method: as §1
# [40] = biological target: Neu5Ac(a2-6)Gal(b1-4)GlcNAc(b1-3)Gal(b1-3)GlcNAc
# Summary of the method: as §1
# [41] = biological target: Neu5Ac(a2-6)Gal(b1-4)GlcNAc(b1-3)Gal(b1-4)GlcNAc
# Summary of the method: as §1
# [42] = biological target: Neu5Ac(a2-6)Gal(b1-4)GlcNAc(b1-3)Gal(b1-4)GlcNAc(b1-2)Man(a1-3)[Neu5Ac(a2-6)Gal(b1-4)GlcNAc(b1-3)Gal(b1-4)GlcNAc(b1-2)Man(a1-6)]GalNAc
# Summary of the method: as §1
binder,measurement,setting,value
B1,glycan array binding signal (z-score),[1],-0.068
same,glycan array binding signal (z-score),[2],0.368
same,glycan array binding signal (z-score),[3],0.07
same,glycan array binding signal (z-score),[4],-0.271
same,glycan array binding signal (z-score),[5],-0.319
same,glycan array binding signal (z-score),[6],-0.826
same,glycan array binding signal (z-score),[7],0.146
same,glycan array binding signal (z-score),[8],-0.272
same,glycan array binding signal (z-score),[9],0.795
same,glycan array binding signal (z-score),[10],-0.727
same,glycan array binding signal (z-score),[11],1.65
same,glycan array binding signal (z-score),[12],-0.095
same,glycan array binding signal (z-score),[13],0.447
same,glycan array binding signal (z-score),[14],0.216
same,glycan array binding signal (z-score),[15],0.08
same,glycan array binding signal (z-score),[16],-1.26
same,glycan array binding signal (z-score),Neu5Ac(a2-3)GalNAc,-0.16
same,glycan array binding signal (z-score),[17],-0.485
same,glycan array binding signal (z-score),[18],-0.466
same,glycan array binding signal (z-score),[19],-0.966
same,glycan array binding signal (z-score),[20],0.434
same,glycan array binding signal (z-score),[21],-0.204
same,glycan array binding signal (z-score),Neu5Ac(a2-6)Gal,0.74
same,glycan array binding signal (z-score),[22],-1.06
same,glycan array binding signal (z-score),Neu5Ac(a2-6)Gal(b1-4)Glc,-0.493
same,glycan array binding signal (z-score),[23],-0.16
same,glycan array binding signal (z-score),[24],0.9
same,glycan array binding signal (z-score),[25],-0.367
same,glycan array binding signal (z-score),[26],0.266
same,glycan array binding signal (z-score),[27],1.12
same,glycan array binding signal (z-score),[28],-0.155
same,glycan array binding signal (z-score),[29],0.171
same,glycan array binding signal (z-score),[30],0.395
same,glycan array binding signal (z-score),[31],0.118
same,glycan array binding signal (z-score),[32],0.512
same,glycan array binding signal (z-score),[33],0.49
same,glycan array binding signal (z-score),[34],-0.644
same,glycan array binding signal (z-score),[35],-0.534
same,glycan array binding signal (z-score),[36],0.414
same,glycan array binding signal (z-score),[37],-0.831
same,glycan array binding signal (z-score),[38],-0.027
same,glycan array binding signal (z-score),[39],-0.322
same,glycan array binding signal (z-score),[40],0.143
same,glycan array binding signal (z-score),[41],-0.694
same,glycan array binding signal (z-score),[42],0.167

# Pulled one by one from above (three):
binder,measurement,setting,value
B1,glycan array binding signal (z-score),[38],-0.027
same,glycan array binding signal (z-score),[36],0.414
same,glycan array binding signal (z-score),Neu5Ac(a2-3)GalNAc,-0.16
